What all share (experiment): proximity labelling; MitoID: GTPase-BirA*-HA-MAO chimera on mitochondria of transiently transfected HEK293T cells, 50 uM biotin 18 h, streptavidin beads, mass spectrometry, biological triplicates; hits by WD scores and volcano plots against the GDP-locked forms
The target in assay [1] is Cdc42(T17N)-BirA*-HA-MAO (human) (UniProt P60953).
Assay [2] deals with Rab5A(S34N)-BirA*-HA-MAO (human) (UniProt P20339).
Assay [3] has as its target Rab5A(Q79L)-BirA*-HA-MAO (human) (UniProt P20339).
Assay [4] concerns the target RhoA(Q63L)-BirA*-HA-MAO (human) (UniProt P61586).

The chains behind the UniProt entries cited, without tags or fusion partners. Where a name states a change or a piece, a line headed by the entry shows the natural chain unless it says otherwise. A line that says so, or that is headed by a name, gives the form on record, which may keep a tag or linker.
UniProt P60953: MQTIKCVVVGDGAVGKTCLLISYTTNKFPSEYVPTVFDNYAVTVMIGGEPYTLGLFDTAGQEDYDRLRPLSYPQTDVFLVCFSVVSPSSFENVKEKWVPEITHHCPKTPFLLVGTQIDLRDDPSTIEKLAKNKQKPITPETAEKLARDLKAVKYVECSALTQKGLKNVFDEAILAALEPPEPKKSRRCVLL
Rab5A(S34N)-BirA*-HA-MAO (P20339, form named): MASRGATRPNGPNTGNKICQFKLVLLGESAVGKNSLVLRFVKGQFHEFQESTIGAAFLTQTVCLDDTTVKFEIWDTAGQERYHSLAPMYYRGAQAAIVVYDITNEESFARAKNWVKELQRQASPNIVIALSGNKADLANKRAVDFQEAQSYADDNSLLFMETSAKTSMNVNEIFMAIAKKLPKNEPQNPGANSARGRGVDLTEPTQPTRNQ
Rab5A(Q79L)-BirA*-HA-MAO (P20339, form named): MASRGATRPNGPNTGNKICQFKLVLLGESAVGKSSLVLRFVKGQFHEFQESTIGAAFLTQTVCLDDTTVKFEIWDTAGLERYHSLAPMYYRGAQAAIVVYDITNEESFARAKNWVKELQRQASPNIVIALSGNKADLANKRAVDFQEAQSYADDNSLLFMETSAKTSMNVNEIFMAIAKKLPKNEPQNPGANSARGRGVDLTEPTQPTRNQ
UniProt P61586: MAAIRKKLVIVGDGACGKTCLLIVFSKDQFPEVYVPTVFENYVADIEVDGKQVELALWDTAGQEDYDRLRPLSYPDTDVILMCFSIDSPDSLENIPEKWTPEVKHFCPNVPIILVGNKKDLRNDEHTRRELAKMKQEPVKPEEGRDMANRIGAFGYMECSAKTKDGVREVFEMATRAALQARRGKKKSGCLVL

No constants are given. Whether binding was seen depends on the method and setting. Binding seen in cells or lysates may run through a third protein. Here binding means that the protein was enriched with, or labelled near, the bait; the list need not be complete.

B1: PDLIM4 (protein, UniProt P50479 1-330)
chain: MPHSVTLRGPSPWGFRLVGGRDFSAPLTISRVHAGSKAALAALCPGDLIQAINGESTELMTHLEAQNRIKGCHDHLTLSVSRPEGRSWPSAPDDSKAQAHRIHIDPEIQDGSPTTSRRPSGTGTGPEDGRPSLGSPYGQPPRFPVPHNGSSEATLPAQMSTLHVSPPPSADPARGLPRSRDCRVDLGSEVYRMLREPAEPVAAEPKQSGSFRYLQGMLEAGEGGDWPGPGGPRNLKPTASKLGAPLSGLQGLPECTRCGHGIVGTIVKARDKLYHPECFMCSDCGLNLKQRGYFFLDERLYCESHAKARVKPPEGYDVVAVYPNAKVELV
For the molecule B1, in assay [1], the binding result is reported as “binds”.

B2: GAPVD1/Rme-6 (protein, UniProt Q14C86 1-1478)
chain: MVKLDIHTLAHHLKQERLYVNSEKQLIQRLNADVLKTAEKLYRTAWIAKQQRINLDRLIITSAEASPAECCQHAKILEDTQFVDGYKQLGFQETAYGEFLSRLRENPRLIASSLVAGEKLNQENTQSVIYTVFTSLYGNCIMQEDESYLLQVLRYLIEFELKESDNPRRLLRRGTCAFSILFKLFSEGLFSAKLFLTATLHEPIMQLLVEDEDHLETDPNKLIERFSPSQQEKLFGEKGSDRFRQKVQEMVESNEAKLVALVNKFIGYLKQNTYCFPHSLRWIVSQMYKTLSCVDRLEVGEVRAMCTDLLLACFICPAVVNPEQYGIISDAPINEVARFNLMQVGRLLQQLAMTGSEEGDPRTKSSLGKFDKSCVAAFLDVVIGGRAVETPPLSSVNLLEGLSRTVVYITYSQLITLVNFMKSVMSGDQLREDRMALDNLLANLPPAKPGKSSSLEMTPYNTPQLSPATTPANKKNRLPIATRSRSRTNMLMDLHMDHEGSSQETIQEVQPEEVLVISLGTGPQLTPGMMSENEVLNMQLSDGGQGDVPVDENKLHGKPDKTLRFSLCSDNLEGISEGPSNRSNSVSSLDLEGESVSELGAGPSGSNGVEALQLLEHEQATTQDNLDDKLRKFEIRDMMGLTDDRDISETVSETWSTDVLGSDFDPNIDEDRLQEIAGAAAENMLGSLLCLPGSGSVLLDPCTGSTISETTSEAWSVEVLPSDSEAPDLKQEERLQELESCSGLGSTSDDTDVREVSSRPSTPGLSVVSGISATSEDIPNKIEDLRSECSSDFGGKDSVTSPDMDEITHGAHQLTSPPSQSESLLAMFDPLSSHEGASAVVRPKVHYARPSHPPPDPPILEGAVGGNEARLPNFGSHVLTPAEMEAFKQRHSYPERLVRSRSSDIVSSVRRPMSDPSWNRRPGNEERELPPAAAIGATSLVAAPHSSSSSPSKDSSRGETEERKDSDDEKSDRNRPWWRKRFVSAMPKAPIPFRKKEKQEKDKDDLGPDRFSTLTDDPSPRLSAQAQVAEDILDKYRNAIKRTSPSDGAMANYESTGDNHDRDLSSKLLYHSDKEVMGDGESAHDSPRDEALQNISADDLPDSASQAAHPQDSAFSYRDAKKKLRLALCSADSVAFPVLTHSTRNGLPDHTDPEDNEIVCFLKVQIAEAINLQDKNLMAQLQETMRCVCRFDNRTCRKLLASIAEDYRKRAPYIAYLTRCRQGLQTTQAHLERLLQRVLRDKEVANRYFTTVCVRLLLESKEKKIREFIQDFQKLTAADDKTAQVEDFLQFLYGAMAQDVIWQNASEEQLQDAQLAIERSVMNRIFKLAFYPNQDGDILRDQVLHEHIQRLSKVVTANHRALQIPEVYLREAPWPSAQSEIRTISAYKTPRDKVQCILRMCSTIMNLLSLANEDSVPGADDFVPVLVFVLIKANPPCLLSTVQYISSFYASCLSGEESYWWMQFTAAVEFIKTIDDRK
As for B2, the binding result in assay [2] is recorded as “binds”.

B3: LRCH3 (protein, UniProt Q96II8 1-777)
chain: MAAAGLVAVAAAAEYSGTVASGGNLPGVHCGPSSGAGPGFGPGSWSRSLDRALEEAAVTGVLSLSGRKLREFPRGAANHDLTDTTRADLSRNRLSEIPIEACHFVSLENLNLYQNCIRYIPEAILNLQALTFLNISRNQLSTLPVHLCNLPLKVLIASNNKLVSLPEEIGHLRHLMELDVSCNEIQTIPSQIGNLEALRDLNVRRNHLVHLPEELAELPLIRLDFSCNKITTIPVCYRNLRHLQTITLDNNPLQSPPAQICIKGKVHIFKYLNIQACKIAPDLPDYDRRPLGFGSCHEELYSSRPYGALDSGFNSVDSGDKRWSGNEPTDEFSDLPLRVAEITKEQRLRRESQYQENRGSLVVTNGGVEHDLDQIDYIDSCTAEEEEAEVRQPKGPDPDSLSSQFMAYIEQRRISHEGSPVKPVAIREFQKTEDMRRYLHQNRVPAEPSSLLSLSASHNQLSHTDLELHQRREQLVERTRREAQLAALQYEEEKIRTKQIQRDAVLDFVKQKASQSPQKQHPLLDGVDGECPFPSRRSQHTDDSALCMSLSGLNQVGCAATLPHSSAFTPLKSDDRPNALLSSPATETVHHSPAYSFPAAIQRNQPQRPESFLFRAGVRAETNKGHASPLPPSAAPTTDSTDSITGQNSRQREEELELIDQLRKHIEYRLKVSLPCDLGAALTDGVVLCHLANHVRPRSVPSIHVPSPAVPKLTMAKCRRNVENFLEACRKIGVPQEQLCLPLHILEEKGLSQVAVTVQALLELAPPKQQQHQLSAV
On to B3, for which the binding entry in assay [1] is on record as “binds”.

B4: FBXL4 (protein, UniProt Q9UKA2 1-621)
chain: MSPVFPMLTVLTMFYYICLRRRARTATRGEMMNTHRAIESNSQTSPLNAEVVQYAKEVVDFSSHYGSENSMSYTMWNLAGVPNVFPSSGDFTQTAVFRTYGTWWDQCPSASLPFKRTPPNFQSQDYVELTFEQQVYPTAVHVLETYHPGAVIRILACSANPYSPNPPAEVRWEILWSERPTKVNASQARQFKPCIKQINFPTNLIRLEVNSSLLEYYTELDAVVLHGVKDKPVLSLKTSLIDMNDIEDDAYAEKDGCGMDSLNKKFSSAVLGEGPNNGYFDKLPYELIQLILNHLTLPDLCRLAQTCKLLSQHCCDPLQYIHLNLQPYWAKLDDTSLEFLQSRCTLVQWLNLSWTGNRGFISVAGFSRFLKVCGSELVRLELSCSHFLNETCLEVISEMCPNLQALNLSSCDKLPPQAFNHIAKLCSLKRLVLYRTKVEQTALLSILNFCSELQHLSLGSCVMIEDYDVIASMIGAKCKKLRTLDLWRCKNITENGIAELASGCPLLEELDLGWCPTLQSSTGCFTRLAHQLPNLQKLFLTANRSVCDTDIDELACNCTRLQQLDILGTRMVSPASLRKLLESCKDLSLLDVSFCSQIDNRAVLELNASFPKVFIKKSFTQ
With B4, the binding entry in assay [3] and in assay [2] was “binds” throughout.

B5: LRCH2 (protein, UniProt Q5VUJ6 1-765)
chain: MAASQGGGGNSGGGGCGGGGSSGGCGTAGGGGGGAGGGGGGGGGTLVVPIPVPTLFGQPFPNGPPWNPGSLQPQHTVRSLDRALEEAGSSGILSLSGRKLRDFPGSGYDLTDTTQADLSRNRFTEIPSDVWLFAPLETLNLYHNCIKTIPEAIKNLQMLTYLNISRNLLSTLPKYLFDLPLKVLVVSNNKLVSIPEEIGKLKDLMELDISCNEIQVLPQQMGKLHSLRELNIRRNNLHVLPDELGDLPLVKLDFSCNKVTEIPVCYRKLHHLQVIILDNNPLQVPPAQICLKGKVHIFKYLNIQACCRMDKKPDSLDLPSLSKRMPSQPLTDSMEDFYPNKNHGPDSGIGSDNGEKRLSTTEPSDDDTVSLHSQVSESNREQTSRNDSHIIGSKTDSQKDQEVYDFVDPNTEDVAVPEQGNAHIGSFVSFFKGKEKCSEKSRKNEELGDEKRLEKEQLLAEEEDDDLKEVTDLRKIAAQLLQQEQKNRILNHSTSVMRNKPKQTVECEKSVSADEVNSPLSPLTWQPLENQKDQIDEQPWPESHPIIWQSEERRRSKQIRKEYFKYKSMRKSSSGNENDEQDSDNANMSTQSPVSSEEYDRTDGFSHSPFGLKPRSAFSRSSRQEYGAADPGFTMRRKMEHLREEREQIRQLRNNLESRLKVILPDDIGAALMDGVVLCHLANHIRPRSVASIHVPSPAVPKLSMAKCRRNVENFLDACKKLGVSQERLCLPHHILEERGLVKVGVTVQALLELPTTKASQLSVA
For B5, in assay [1], the binding result was “binds”.

B6: ARHGAP35/p190RhoGAP (protein, UniProt Q9NRY4 1-1499)
chain: MMMARKQDVRIPTYNISVVGLSGTEKEKGQCGIGKSCLCNRFVRPSADEFHLDHTSVLSTSDFGGRVVNNDHFLYWGEVSRSLEDCVECKMHIVEQTEFIDDQTFQPHRSTALQPYIKRAAATKLASAEKLMYFCTDQLGLEQDFEQKQMPDGKLLVDGFLLGIDVSRGMNRNFDDQLKFVSNLYNQLAKTKKPIVVVLTKCDEGVERYIRDAHTFALSKKNLQVVETSARSNVNVDLAFSTLVQLIDKSRGKTKIIPYFEALKQQSQQIATAKDKYEWLVSRIVKNHNENWLSVSRKMQASPEYQDYVYLEGTQKAKKLFLQHIHRLKHEHIERRRKLYLAALPLAFEALIPNLDEIDHLSCIKAKKLLETKPEFLKWFVVLEETPWDATSHIDNMENERIPFDLMDTVPAEQLYEAHLEKLRNERKRVEMRRAFKENLETSPFITPGKPWEEARSFIMNEDFYQWLEESVYMDIYGKHQKQIIDKAKEEFQELLLEYSELFYELELDAKPSKEKMGVIQDVLGEEQRFKALQKLQAERDALILKHIHFVYHPTKETCPSCPACVDAKIEHLISSRFIRPSDRNQKNSLSDPNIDRINLVILGKDGLARELANEIRALCTNDDKYVIDGKMYELSLRPIEGNVRLPVNSFQTPTFQPHGCLCLYNSKESLSYVVESIEKSRESTLGRRDNHLVHLPLTLILVNKRGDTSGETLHSLIQQGQQIASKLQCVFLDPASAGIGYGRNINEKQISQVLKGLLDSKRNLNLVSSTASIKDLADVDLRIVMCLMCGDPFSADDILFPVLQSQTCKSSHCGSNNSVLLELPIGLHKKRIELSVLSYHSSFSIRKSRLVHGYIVFYSAKRKASLAMLRAFLCEVQDIIPIQLVALTDGAVDVLDNDLSREQLTEGEEIAQEIDGRFTSIPCSQPQHKLEIFHPFFKDVVEKKNIIEATHMYDNAAEACSTTEEVFNSPRAGSPLCNSNLQDSEEDIEPSYSLFREDTSLPSLSKDHSKLSMELEGNDGLSFIMSNFESKLNNKVPPPVKPKPPVHFEITKGDLSYLDQGHRDGQRKSVSSSPWLPQDGFDPSDYAEPMDAVVKPRNEEENIYSVPHDSTQGKIITIRNINKAQSNGSGNGSDSEMDTSSLERGRKVSIVSKPVLYRTRCTRLGRFASYRTSFSVGSDDELGPIRKKEEDQASQGYKGDNAVIPYETDEDPRRRNILRSLRRNTKKPKPKPRPSITKATWESNYFGVPLTTVVTPEKPIPIFIERCIEYIEATGLSTEGIYRVSGNKSEMESLQRQFDQDHNLDLAEKDFTVNTVAGAMKSFFSELPDPLVPYNMQIDLVEAHKINDREQKLHALKEVLKKFPKENHEVFKYVISHLNKVSHNNKVNLMTSENLSICFWPTLMRPDFSTMDALTATRTYQTIIELFIQQCPFFFYNRPITEPPGARPSSPSAVASTVPFLTSTPVTSQPSPPQSPPPTPQSPMQPLLPSQLQAEHTL
For B6, the binding result in assay [4] is on record as “binds”.

Values taken from PMC6639074.
